Results on two molecules are retold here after patent publication KR20210143097A.

Protein sequences, listed by entry. Tags and fused reporters are not part of them. Residues count along the entry.
UniProt P20273, residues 20-687: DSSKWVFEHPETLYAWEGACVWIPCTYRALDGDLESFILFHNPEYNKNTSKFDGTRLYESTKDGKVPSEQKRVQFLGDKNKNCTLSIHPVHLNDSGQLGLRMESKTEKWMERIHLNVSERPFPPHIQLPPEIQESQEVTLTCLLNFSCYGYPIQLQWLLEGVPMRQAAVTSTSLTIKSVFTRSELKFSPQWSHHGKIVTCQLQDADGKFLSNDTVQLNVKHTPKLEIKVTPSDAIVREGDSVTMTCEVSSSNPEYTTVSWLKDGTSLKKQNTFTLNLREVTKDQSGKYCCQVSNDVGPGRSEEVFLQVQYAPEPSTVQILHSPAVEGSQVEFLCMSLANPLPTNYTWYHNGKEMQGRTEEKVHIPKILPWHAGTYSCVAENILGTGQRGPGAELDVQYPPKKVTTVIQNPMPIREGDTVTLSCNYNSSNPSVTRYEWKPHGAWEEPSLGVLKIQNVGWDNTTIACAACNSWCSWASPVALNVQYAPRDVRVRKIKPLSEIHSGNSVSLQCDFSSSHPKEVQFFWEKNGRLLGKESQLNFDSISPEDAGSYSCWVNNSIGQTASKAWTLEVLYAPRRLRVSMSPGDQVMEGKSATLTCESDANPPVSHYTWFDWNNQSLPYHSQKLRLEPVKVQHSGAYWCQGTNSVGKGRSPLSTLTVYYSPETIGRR

The target in this test is CD22 (antigen of the hybridoma screening ELISA) (UniProt P20273). Nature of the test: hybridoma screening ELISA after limiting dilution. A general note: ELISA stands for enzyme-linked immunosorbent assay.

Results are given in words; binding and its absence hold for the method and conditions named. Some results given as binding are weak or reduced against the parent protein; the word gives no strength.

B1: 7B5 항체 (antibody, V domains shown)
VH: EVQLEESGPGLVAPSQSLSITCTVSGFSLTRYDISWIRQPPGKGLEWLGVMWTGGGTNYNSAFMSRLSISRDNSKSQVFLKMNSLQTDDTAIYYCVRSYYGSAMDYWGQGTSVTVSS
VL: DIVMTQSSSYLSVSLGGRVTITCKASDHINNWLAWYQQKPGNAPRLLISGATSLETGVPSRFSGSGSGKDYTLSITSLQTEDVATYYCQQHWSTPFTFGSGTKLEIK
On to B1, for which the binding result is reported as “binds”.

B2: 3F11 항체 (antibody, V domains shown)
VH: EVKLVESGGGLVQPGGSMKLSCVASGFTFSNYWMNWVRQSPEKGLEWVAEIRLKSNNYATHYAESVKGRFTISRDDSKSSVYLQMNNLRAEDTGIYYCTSIYYYGRDYAMDYWGQGTSVTVSS
VL: DIVMTQSPAIMSASLGERVTMTCTASSSVSSSYLHWYQQKPGSSPKLWIYSTSNLASGVPARFSGSGSGTSYSLTISSMEAEDAATYYCHQYHRSPYTFGGGTKLEIK
As to B2, the binding entry was “binds”.
